Measurements reported in PubChem BioAssay AID1259254 (NCATS, 2017).
Assay: 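Finding genes that stop cells copying their DNA twice in one cycle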 (primary screen). Cells: human HCT116 colorectal cancer cells. Reagent: single siRNA against human genes. Time to read-out: 3 days. Measured: 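Nuclei stained with Hoechst and imaged; cell-cycle phase assigned by DNA content; G2 share scaled per plate, non-targeting siRNA 0%, GMNN siRNA 100%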. Scale: G2 robust z-score and G2 cells, % of GMNN control: higher = more G2 cells, more excess DNA replication. Call rule: 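An siRNA counts as active if its G2 robust z-score lies at least 5 MADs above the screen median; here such calls match roughly 38% of GMNN control or more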.
Here is one part, drawn at random, of about 59,000 reagents. About 1,550 of them (2.6%) were called active. 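G2 share is only a proxy for re-replication; each gene was hit by three separate siRNAs, and active genes were retested.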 Unmarked entries are inactive. The numbers tell different reagents against one gene apart. Further read-outs or replicates are left out here. Not given: the amount of reagent.

| Gene | reagent no. | G2 robust z-score | G2 cells, % of GMNN control |
| --- | --- | --- | --- |
| NCF4 | 1 | 0.503 | 6.5 |
| NCF4 | 2 | 1.09 | 10.6 |
| NCF4 | 3 | 4.82 | 36.9 |
| LMF1 | 1 | -0.909 | -3.43 |
| LMF1 | 2 | 0.294 | 5.04 |
| LMF1 | 3 | 1.24 | 11.7 |
| PSAPL1 | 1 | -0.623 | -1.41 |
| PSAPL1 | 2 | -0.0436 | 2.66 |
| PSAPL1 | 3 | -0.168 | 1.78 |
| NCSTN | 1 | 1.07 | 10.5 |
| NCSTN | 2 | -0.224 | 1.39 |
| NCSTN | 3 | -0.669 | -1.74 |
| SMARCB1 | 1 | 10.7 (active) | 78.2 |
| SMARCB1 | 2 | -0.998 | -4.06 |
| SMARCB1 | 3 | -0.475 | -0.376 |
| MUC20 | 1 | 0.957 | 9.7 |
| MUC20 | 2 | -0.291 | 0.918 |
| MUC20 | 3 | -0.973 | -3.88 |
| ABCA9 | 1 | -1.33 | -6.42 |
| ABCA9 | 2 | -0.776 | -2.49 |
| ABCA9 | 3 | -0.129 | 2.06 |
| PORCN | 1 | 0.117 | 3.79 |
| PORCN | 2 | -1.48 | -7.43 |
| PORCN | 3 | -0.645 | -1.57 |
| NKAIN3 | 1 | 3.63 | 28.5 |
| NKAIN3 | 2 | -0.602 | -1.27 |
| NKAIN3 | 3 | 0.749 | 8.24 |
| TNRC6C | 1 | -0.81 | -2.73 |
| TNRC6C | 2 | -0.562 | -0.99 |
| TNRC6C | 3 | -0.743 | -2.26 |
| KCTD8 | 1 | 0.0432 | 3.27 |
| KCTD8 | 2 | 2.82 | 22.8 |
| KCTD8 | 3 | 0.116 | 3.78 |
| ACE | 1 | -1.23 | -5.66 |
| ACE | 2 | -0.623 | -1.42 |
| ACE | 3 | -0.256 | 1.16 |
| LRRC7 | 1 | -0.743 | -2.26 |
| LRRC7 | 2 | -0.486 | -0.454 |
| LRRC7 | 3 | 0.353 | 5.45 |
| KRT83 | 1 | 3.26 | 25.9 |
| KRT83 | 2 | -0.699 | -1.95 |
| KRT83 | 3 | -0.615 | -1.36 |
| KRT83 | 4 | 0.19 | 4.3 |
| KRT83 | 5 | -0.817 | -2.78 |
| KRT83 | 6 | -1.24 | -5.74 |
| ANO4 | 1 | -0.817 | -2.78 |
| ANO4 | 2 | 1.97 | 16.8 |
| ANO4 | 3 | 0.528 | 6.68 |
| NFKBIA | 1 | 2.72 | 22.1 |
| NFKBIA | 2 | 0.987 | 9.91 |
| NFKBIA | 3 | -0.943 | -3.66 |
| MROH2A | 1 | 0.0549 | 3.35 |
| MROH2A | 2 | -0.557 | -0.949 |
| MROH2A | 3 | 15.7 (active) | 114 |
| CDK11A | 1 | 0.781 | 8.46 |
| CDK11A | 2 | 0.868 | 9.07 |
| CDK11A | 3 | -0.155 | 1.87 |
| DAZAP1 | 1 | -0.769 | -2.45 |
| DAZAP1 | 2 | 0.158 | 4.08 |
| DAZAP1 | 3 | 3.9 | 30.4 |
| SRXN1 | 1 | -0.414 | 0.0568 |
| SRXN1 | 2 | 1.3 | 12.1 |
| SRXN1 | 3 | -0.444 | -0.154 |
| LINC01220 | 1 | 0.425 | 5.96 |
| LINC01220 | 2 | 0.0383 | 3.24 |
| LINC01220 | 3 | -0.344 | 0.547 |
| IBSP | 1 | 0.859 | 9.01 |
| IBSP | 2 | -0.569 | -1.03 |
| IBSP | 3 | 2.32 | 19.3 |

Active calls, of those listed so far:
| Gene | reagent no. | G2 robust z-score | G2 cells, % of GMNN control |
| --- | --- | --- | --- |
| SMARCB1 | 1 | 10.7 (active) | 78.2 |
| MROH2A | 3 | 15.7 (active) | 114 |
